Experimental data published in article PMC2198942.
Numbering of substitutions follows the chain as printed. No constants are given. Whether binding was seen depends on the method and setting. Binding seen in cells or lysates may run through a third protein. Some entries that bind do so weakly or less than the wild type. Where a sequence is shown, tags or fusion partners need not be part of it.

Protein sequences, listed by entry. Tags and fused reporters are not part of them.
UniProt P00546: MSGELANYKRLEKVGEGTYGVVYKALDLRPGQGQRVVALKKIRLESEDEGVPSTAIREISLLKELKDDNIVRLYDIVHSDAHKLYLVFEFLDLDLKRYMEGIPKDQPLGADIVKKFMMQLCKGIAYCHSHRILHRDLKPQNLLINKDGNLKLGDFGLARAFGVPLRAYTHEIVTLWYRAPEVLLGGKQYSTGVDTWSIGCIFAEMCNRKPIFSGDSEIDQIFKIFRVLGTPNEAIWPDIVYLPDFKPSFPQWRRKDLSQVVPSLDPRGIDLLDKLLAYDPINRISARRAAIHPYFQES

Key:
Test in all cases: split reporter; yeast enhanced monomeric Venus (yEmVenus) protein-fragment complementation assay (PCA); VF[1] and VF[2] fusions co-expressed from p413ADHcen and p415ADHcen in wild-type MatA (BY4741) yeast; fluorescence microscopy of living cells at room temperature with image analysis (threshold 225 against autofluorescence of mock cells); the three Cdc28 PCAs with Swi4, Swi6 and Mbp1 were also read in 30 deletion strains and in elm1T551A
[1] = target: T1, Swi6 yEmVenus PCA fusion protein (S. cerevisiae) (UniProt P09959)
T1 sequence: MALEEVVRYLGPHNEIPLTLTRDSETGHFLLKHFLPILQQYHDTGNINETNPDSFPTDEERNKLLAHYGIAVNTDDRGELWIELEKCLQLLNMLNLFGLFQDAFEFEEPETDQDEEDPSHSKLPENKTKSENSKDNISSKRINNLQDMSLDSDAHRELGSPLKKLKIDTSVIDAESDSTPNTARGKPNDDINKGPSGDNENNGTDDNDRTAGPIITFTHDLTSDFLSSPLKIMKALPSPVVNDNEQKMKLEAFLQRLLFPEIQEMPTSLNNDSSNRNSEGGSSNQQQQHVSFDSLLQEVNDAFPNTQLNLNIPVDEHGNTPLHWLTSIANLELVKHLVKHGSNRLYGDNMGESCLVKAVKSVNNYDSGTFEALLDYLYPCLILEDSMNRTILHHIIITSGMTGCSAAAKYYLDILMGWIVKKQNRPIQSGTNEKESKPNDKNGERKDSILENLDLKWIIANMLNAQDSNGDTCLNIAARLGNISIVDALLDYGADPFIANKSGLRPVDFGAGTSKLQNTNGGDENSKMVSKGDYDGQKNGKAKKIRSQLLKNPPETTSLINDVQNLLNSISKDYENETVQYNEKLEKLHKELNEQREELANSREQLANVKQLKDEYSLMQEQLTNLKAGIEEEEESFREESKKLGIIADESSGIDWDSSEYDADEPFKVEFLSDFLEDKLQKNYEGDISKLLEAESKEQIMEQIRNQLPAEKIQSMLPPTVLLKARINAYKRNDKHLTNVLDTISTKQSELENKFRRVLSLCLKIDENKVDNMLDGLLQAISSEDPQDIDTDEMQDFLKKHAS

[2] = target: T2, Elm1 yEmVenus PCA fusion protein (S. cerevisiae) (UniProt P32801)
T2 sequence: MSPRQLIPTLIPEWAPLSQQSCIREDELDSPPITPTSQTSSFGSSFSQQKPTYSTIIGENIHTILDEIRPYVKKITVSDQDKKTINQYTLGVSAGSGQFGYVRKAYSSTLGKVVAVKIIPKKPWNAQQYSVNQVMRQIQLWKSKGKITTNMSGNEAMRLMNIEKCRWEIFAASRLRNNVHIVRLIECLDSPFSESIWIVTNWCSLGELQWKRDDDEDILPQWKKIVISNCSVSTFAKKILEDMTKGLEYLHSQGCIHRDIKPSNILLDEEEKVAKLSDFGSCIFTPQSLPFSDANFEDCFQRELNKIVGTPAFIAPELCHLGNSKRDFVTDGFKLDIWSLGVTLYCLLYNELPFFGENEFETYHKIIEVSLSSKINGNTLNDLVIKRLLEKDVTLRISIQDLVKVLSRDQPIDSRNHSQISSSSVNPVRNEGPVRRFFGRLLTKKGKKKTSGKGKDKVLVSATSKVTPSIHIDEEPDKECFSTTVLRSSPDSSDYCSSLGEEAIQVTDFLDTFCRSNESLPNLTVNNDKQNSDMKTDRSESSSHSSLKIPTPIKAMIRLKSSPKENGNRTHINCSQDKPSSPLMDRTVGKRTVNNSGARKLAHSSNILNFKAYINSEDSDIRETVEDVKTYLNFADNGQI

[3] = target: T3, elm1T551A yEmVenus PCA fusion protein (S. cerevisiae) (UniProt P32801)
T3 sequence: T2 sequence with T551A

Measured: binding

Cdc28-VF[1] fusion protein (from UniProt P00546 1-298) (enzyme)
binds: all assays above
